At least one compound was matched to its structure with a doubt left.
Tested on: CD46 cell surface expression on RPMI8226 cells
Assay: CD46 cell surface expression on RPMI8226 cells by FACS / flow cytometry
Assay type: cell-based
Conditions: glucocorticoid receptor agonist
Description: Example 1: CD46 upregulation by exposure to pomalidomide and lenalidomide (FIGS. 1-2). The effect of pomalidomide and lenalidomide exposure to multiple myeloma (RPMI8226) cells was studied. RPMI8226 cells were treated with IMiDs (Pomalidomide and Lenalidomide) for 3 and 10 days (FIG. 1). CD46 expression was analyzed by FACS. CD38 was also measured as a reference. IMiDs-induced cell surface upregulation was observed only to selective antigens, e.g., CD46 but not CD38.
FACS was performed on day-7. […] FACS was performed on day-14.
FIG. 6: The multiple myeloma cell line RPMI8226 was incubated with 10 μM pomalidamide (pom) for 14 days, washed, and further incubated with 10 nM dexamethasone (dex) for 7 days. Cell surface CD46 expression was assessed by flow cytometry. MFI: median fluorescence intensity. Multiple group comparison was performed using One-way ANOVA. ** p<0.01; ****p<0.0001.
Methods: RMPI8226 cells were exposed to varying concentrations of the Stat3 inhibitor C188-9 and the glucocorticoid receptor inhibitor mifepristone for 7 days at 37° C. in culture media, and cell surface CD46 expression is detected by flow cytometry using the anti-CD46 antibody YS5 followed by AlexaFluo-617 labeled anti-human Fc secondary antibody. MFI (median fluorescence intensity) was recorded and analyzed by One-way ANOVA.

C[C@@H]1C[C@H]2[C@@H]3CCC4=CC(=O)C=C[C@]4(C)[C@@]3(F)[C@@H](O)C[C@]2(C)[C@@]1(O)C(=O)CO [dexamethasone]
CD46 in multiple myeloma cells: upregulates

Reference: patent US20240101699A1, “MODULATION OF CD46 CELL SURFACE EXPRESSION AND THERAPEUTIC USE THEREOF” (The Regents of the University of California, priority 2021, published 2024)
